Measured values as given in ChEMBL document CHEMBL1157366 (Antimicrob Agents Chemother, 2007).

Tested on: Plasmodium falciparum
Experiment: Antimalarial activity against Plasmodium falciparum
Type: functional, organism-based

Compound `CCCCc1oc2ccccc2c1C(=O)c1cc(I)c(OCCN(CC)CC)c(I)c1` [AMIODARONE] has an IC50 of 2500 nM.
